Reference: patent US7314747
These are yes or no findings as the source states them, for the method shown. Some entries that bind do so weakly or less than the wild type.

Amino acid sequences for entries named in this document (tags omitted). A change or cut given only in a name is not applied to a line headed by its entry. Residues count along the entry.
UniProt Q9Y618: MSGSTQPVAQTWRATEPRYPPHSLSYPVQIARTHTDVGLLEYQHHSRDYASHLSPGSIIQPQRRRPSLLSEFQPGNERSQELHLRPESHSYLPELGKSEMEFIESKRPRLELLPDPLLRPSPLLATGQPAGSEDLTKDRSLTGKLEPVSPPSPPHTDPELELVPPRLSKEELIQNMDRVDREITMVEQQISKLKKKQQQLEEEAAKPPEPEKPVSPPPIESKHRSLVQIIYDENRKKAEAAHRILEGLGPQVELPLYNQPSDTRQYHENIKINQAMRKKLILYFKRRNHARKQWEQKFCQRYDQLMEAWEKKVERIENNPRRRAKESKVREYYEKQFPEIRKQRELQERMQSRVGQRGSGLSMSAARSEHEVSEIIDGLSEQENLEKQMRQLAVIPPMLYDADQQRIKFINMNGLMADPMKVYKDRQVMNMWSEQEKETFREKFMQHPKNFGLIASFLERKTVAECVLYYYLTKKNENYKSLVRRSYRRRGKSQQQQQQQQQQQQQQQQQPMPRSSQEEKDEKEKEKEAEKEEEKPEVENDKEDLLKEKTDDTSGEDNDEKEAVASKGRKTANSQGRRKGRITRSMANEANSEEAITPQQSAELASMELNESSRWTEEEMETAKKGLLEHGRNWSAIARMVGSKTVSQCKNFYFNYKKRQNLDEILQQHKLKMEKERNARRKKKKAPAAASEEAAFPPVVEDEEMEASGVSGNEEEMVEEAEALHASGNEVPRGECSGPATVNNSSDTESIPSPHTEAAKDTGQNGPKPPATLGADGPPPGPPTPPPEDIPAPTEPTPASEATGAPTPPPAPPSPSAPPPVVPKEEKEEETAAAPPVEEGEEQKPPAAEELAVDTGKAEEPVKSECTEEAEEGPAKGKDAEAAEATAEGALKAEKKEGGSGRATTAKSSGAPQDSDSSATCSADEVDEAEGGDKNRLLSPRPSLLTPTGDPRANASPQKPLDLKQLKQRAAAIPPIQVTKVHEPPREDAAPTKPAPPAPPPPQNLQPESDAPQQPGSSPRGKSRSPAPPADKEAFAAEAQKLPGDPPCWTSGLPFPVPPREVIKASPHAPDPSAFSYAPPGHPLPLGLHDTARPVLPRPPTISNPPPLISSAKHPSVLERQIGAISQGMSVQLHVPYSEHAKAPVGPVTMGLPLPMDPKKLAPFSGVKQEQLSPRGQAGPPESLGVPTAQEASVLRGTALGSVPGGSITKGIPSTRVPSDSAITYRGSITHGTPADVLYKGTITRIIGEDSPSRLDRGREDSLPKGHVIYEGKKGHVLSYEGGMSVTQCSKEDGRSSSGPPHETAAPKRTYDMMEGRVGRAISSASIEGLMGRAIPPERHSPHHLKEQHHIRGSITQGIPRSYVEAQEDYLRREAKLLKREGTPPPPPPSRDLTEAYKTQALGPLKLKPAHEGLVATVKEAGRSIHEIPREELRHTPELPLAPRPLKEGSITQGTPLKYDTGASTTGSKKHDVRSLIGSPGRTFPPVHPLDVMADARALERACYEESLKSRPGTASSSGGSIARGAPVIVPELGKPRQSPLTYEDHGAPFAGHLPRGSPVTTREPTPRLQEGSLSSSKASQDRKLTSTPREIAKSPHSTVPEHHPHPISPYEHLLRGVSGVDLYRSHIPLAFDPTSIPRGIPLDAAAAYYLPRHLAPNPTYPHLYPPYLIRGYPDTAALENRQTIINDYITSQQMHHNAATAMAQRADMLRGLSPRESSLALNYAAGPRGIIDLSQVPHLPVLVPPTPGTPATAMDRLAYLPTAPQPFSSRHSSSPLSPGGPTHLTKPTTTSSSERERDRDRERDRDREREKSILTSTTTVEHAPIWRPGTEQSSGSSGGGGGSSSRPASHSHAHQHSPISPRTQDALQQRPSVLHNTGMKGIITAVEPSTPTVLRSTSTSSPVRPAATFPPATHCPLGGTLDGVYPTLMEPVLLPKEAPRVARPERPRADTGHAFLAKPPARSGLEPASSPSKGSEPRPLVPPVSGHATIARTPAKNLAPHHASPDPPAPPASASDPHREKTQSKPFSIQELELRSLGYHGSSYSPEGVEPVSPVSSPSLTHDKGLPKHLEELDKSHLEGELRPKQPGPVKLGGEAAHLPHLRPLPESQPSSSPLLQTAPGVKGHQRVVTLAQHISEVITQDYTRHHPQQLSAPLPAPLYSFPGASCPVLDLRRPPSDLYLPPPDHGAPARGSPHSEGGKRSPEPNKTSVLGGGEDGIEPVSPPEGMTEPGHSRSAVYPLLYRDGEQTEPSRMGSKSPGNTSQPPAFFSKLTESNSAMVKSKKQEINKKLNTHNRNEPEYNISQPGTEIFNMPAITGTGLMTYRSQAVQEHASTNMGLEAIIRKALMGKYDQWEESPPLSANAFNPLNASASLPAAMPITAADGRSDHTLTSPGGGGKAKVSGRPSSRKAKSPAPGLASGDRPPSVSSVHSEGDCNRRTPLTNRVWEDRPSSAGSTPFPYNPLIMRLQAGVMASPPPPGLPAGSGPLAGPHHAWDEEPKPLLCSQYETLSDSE
UniProt P19793: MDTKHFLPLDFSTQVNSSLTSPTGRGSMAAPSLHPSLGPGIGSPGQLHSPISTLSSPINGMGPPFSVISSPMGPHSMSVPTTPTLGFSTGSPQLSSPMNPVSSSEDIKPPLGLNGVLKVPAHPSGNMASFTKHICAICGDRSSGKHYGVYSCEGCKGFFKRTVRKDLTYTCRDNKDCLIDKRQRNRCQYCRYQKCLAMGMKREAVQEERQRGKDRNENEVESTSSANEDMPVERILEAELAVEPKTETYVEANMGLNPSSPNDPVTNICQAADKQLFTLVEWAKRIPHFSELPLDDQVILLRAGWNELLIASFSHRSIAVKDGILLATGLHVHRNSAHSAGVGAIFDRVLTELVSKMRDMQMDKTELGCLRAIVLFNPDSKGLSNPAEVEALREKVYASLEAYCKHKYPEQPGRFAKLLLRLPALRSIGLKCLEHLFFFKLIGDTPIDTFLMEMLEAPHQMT
GST fusion of hRXRα LBD (aa 228-462): residues 228-462 of P19793

Legend:
[1] = target: GST-SMRT (GST fusion of the C-SMRT encoded by the yeast two hybrid clone) (human) (UniProt Q9Y618); test: far-western: 35S-labelled receptor on blotted GST fusion
[2] = target: GST fusion of hRXRα LBD (aa 228-462) (human) (UniProt P19793); test: far-western: 35S-labelled probe on blotted bacterial extract

Substance | binding [1] | binding [2]
35S-RXR (from UniProt P19793 1-462) (receptor) | binds | 
SMRT (first SMRT clone; silencing mediator for retinoic acid receptor and thyroid hormone receptor) (from UniProt Q9Y618 1031-2514) |  | binds
